Target: Tyrosine-protein phosphatase non-receptor type 22 (Homo sapiens) (UniProt Q9Y2R2)
Test: PTPN22 enzyme inhibition, catalase-containing buffer – biochemical, catalase added, Infinite200, 384-well (AID 1338)
Settings: Recombinant LYP, DiFMUP fluorescence, with catalase; at 10 µM; stronger effect = higher value

Amino acid sequences for entries named in this document (tags omitted).
UniProt Q9Y2R2, whole entry, looked up: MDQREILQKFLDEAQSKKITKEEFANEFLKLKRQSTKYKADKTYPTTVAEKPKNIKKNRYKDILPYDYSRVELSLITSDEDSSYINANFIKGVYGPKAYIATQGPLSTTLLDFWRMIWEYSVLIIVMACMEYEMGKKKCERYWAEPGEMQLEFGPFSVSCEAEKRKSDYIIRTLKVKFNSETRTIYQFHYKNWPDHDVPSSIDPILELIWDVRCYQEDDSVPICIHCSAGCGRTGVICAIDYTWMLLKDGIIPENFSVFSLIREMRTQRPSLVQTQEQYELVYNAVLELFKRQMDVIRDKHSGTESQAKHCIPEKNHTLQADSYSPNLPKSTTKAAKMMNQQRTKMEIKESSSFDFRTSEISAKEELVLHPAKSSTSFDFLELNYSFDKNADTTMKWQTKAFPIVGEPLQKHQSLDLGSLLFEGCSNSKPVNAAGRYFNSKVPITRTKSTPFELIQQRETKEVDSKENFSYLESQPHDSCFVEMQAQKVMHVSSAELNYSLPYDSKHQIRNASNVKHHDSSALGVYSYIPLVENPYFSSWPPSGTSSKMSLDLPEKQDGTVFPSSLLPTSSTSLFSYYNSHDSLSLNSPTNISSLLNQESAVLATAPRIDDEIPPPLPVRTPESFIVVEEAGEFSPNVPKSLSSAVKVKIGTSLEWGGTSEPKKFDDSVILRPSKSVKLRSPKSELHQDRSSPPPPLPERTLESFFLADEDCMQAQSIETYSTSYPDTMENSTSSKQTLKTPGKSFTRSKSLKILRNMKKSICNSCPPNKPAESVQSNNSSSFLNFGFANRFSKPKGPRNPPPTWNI

## Cc1c2cc(O)c(=O)cc-2oc2cc(O)c(O)cc12
  inhibition: 68.6%

— PubChem BioAssay AID1338 (Columbia University Molecular Screening Center, 2008)
